This is an account of results in paper doi:10.1101/2021.01.08.425994.

The chains behind the UniProt entries cited, without tags or fusion partners. Where a name states a change or a piece, a line headed by the entry shows the natural chain unless it says otherwise.
UniProt O08785: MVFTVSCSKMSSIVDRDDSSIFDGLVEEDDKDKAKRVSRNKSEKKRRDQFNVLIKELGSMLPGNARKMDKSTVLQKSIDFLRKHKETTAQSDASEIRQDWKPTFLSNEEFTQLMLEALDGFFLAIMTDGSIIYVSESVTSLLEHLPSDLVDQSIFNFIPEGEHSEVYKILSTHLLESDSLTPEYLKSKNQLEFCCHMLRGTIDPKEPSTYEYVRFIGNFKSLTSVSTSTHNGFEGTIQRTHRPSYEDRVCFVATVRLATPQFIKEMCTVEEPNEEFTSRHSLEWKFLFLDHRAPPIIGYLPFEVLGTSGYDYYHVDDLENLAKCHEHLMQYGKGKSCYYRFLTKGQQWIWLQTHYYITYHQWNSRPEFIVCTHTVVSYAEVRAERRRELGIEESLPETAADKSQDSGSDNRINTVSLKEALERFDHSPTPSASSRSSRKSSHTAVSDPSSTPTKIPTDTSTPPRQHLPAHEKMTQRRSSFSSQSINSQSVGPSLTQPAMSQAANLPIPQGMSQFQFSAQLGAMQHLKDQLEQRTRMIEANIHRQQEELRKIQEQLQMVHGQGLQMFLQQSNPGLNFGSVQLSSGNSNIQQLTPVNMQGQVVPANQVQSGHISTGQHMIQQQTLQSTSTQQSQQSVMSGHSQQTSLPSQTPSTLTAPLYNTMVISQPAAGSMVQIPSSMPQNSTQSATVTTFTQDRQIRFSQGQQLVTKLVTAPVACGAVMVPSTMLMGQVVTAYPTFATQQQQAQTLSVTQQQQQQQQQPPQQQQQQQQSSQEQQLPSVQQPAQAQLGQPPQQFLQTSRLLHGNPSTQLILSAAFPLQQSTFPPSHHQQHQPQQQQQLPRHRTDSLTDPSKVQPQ

The target of this test is CLOCK:BMAL1 heterodimer (overexpressed) (not stated | mouse) (UniProt O08785). In words: co-IP.

No constants are given. Whether binding was seen depends on the method and setting. In cells and extracts the contact can be indirect. Some entries that bind do so weakly or less than the wild type.

B1: human CRY1 wildtype (protein, UniProt Q16526 1-586)
chain: MGVNAVHWFRKGLRLHDNPALKECIQGADTIRCVYILDPWFAGSSNVGINRWRFLLQCLEDLDANLRKLNSRLFVIRGQPADVFPRLFKEWNITKLSIEYDSEPFGKERDAAIKKLATEAGVEVIVRISHTLYDLDKIIELNGGQPPLTYKRFQTLISKMEPLEIPVETITSEVIEKCTTPLSDDHDEKYGVPSLEELGFDTDGLSSAVWPGGETEALTRLERHLERKAWVANFERPRMNANSLLASPTGLSPYLRFGCLSCRLFYFKLTDLYKKVKKNSSPPLSLYGQLLWREFFYTAATNNPRFDKMEGNPICVQIPWDKNPEALAKWAEGRTGFPWIDAIMTQLRQEGWIHHLARHAVACFLTRGDLWISWEEGMKVFEELLLDADWSINAGSWMWLSCSSFFQQFFHCYCPVGFGRRTDPNGDYIRRYLPVLRGFPAKYIYDPWNAPEGIQKVAKCLIGVNYPKPMVNHAEASRLNIERMKQIYQQLSRYRGLGLLASVPSNPNGNGGFMGYSAENIPGCSSSGSCSQGSGILHYAHGDSQQTHLLKQGRSSMGTGLSGGKRPSQEEDTQSIGPKVQRQSTN
Regarding B1, the binding entry is listed as “binds”.
